Results: the supplement of paper PMC3334620
The full ranking holds about 33,000 sequences; the median of “E-score (-0.5 to 0.5)” is about -0.0034, and the highest 2% start at about 0.25. Some of the results follow.

Target: T1, Yap3 (UniProt P38749)
T1 sequence: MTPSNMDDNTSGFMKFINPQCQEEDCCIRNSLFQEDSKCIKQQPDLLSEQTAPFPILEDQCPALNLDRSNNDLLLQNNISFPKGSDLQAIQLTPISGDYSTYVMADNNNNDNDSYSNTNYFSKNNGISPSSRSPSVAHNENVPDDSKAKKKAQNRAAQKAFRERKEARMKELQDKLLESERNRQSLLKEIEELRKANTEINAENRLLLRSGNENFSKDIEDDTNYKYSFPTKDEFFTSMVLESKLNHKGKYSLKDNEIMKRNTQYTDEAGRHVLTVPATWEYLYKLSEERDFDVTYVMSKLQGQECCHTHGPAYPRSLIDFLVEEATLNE
Test: PBM E-score (8-mer binding enrichment) (E-score (-0.5 to 0.5)); higher = stronger / more preferred TF binding
Conditions: protein concentration: 100 nM; construct: GST-full length
In short: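 GST-tagged yeast TFs (full-length or DNA-binding domain) were made by PURExpress in vitro transcription/translation and applied at about 100-200 nM to universal all-10-mer Agilent arrays. The arrays were made double-stranded by primer extension, on fresh or once-stripped slides. Bound protein was detected with fluorescent anti-GST, and scans were normalised with masliner. Each ungapped eight-base word, pooled with its reverse complement, received an E-score (modified Wilcoxon-Mann-Whitney statistic) from the Universal PBM Analysis Suite.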

Sequence | PBM E-score
CTCTGGTC | -0.0926
AAGGCAGA | -0.0435
CCACGCCG | -0.124
AATGGTTA | 0.0125
ATCGTGCA | 0.0632
AGCCATAT | 0.0814
ATCGAGAC | -0.145
CCAAGGAG | -0.0467
GCGATCTA | 0.0808
CGTGTGAA | 0.0802
CTGGACTA | -0.11
CAGGTTCA | -0.156
CAACACGG | -0.041
CTTCGCGC | 0.135
CTCCTCGA | -0.115
ACGGACAC | -0.043
CCGCTCAG | -0.101
CCATCGAG | 0.00505
TATTAATA | 0.301
CCAACTAC | 0.0977
AAGACTAT | 0.0756
AAGATTCA | 0.0769
GACACAGA | 0.0192
AAGGGACT | 0.0794
CAGCCTAA | -0.12

Sequence | PBM E-score
GACTTAAA | -0.00118
AGTATACA | 0.144
ACTGTTTG | 0.0933
ATGCGTTG | 0.016
ACTCTCTC | -0.025
GGTTTAAC | 0.106
GCATCCAC | 0.0854
CTGGGAAC | -0.0171
ACTTTGGA | 0.0611
ACTTCACA | 0.0272
CCCAACGC | 0.131
CTTAAGCC | -0.101
GAGTGCGA | -0.0768
CAACATAC | 0.0807
ACGGCCCG | -0.121
AATTGTAC | 0.226
ACAAGAAT | 0.1
CAGAGCAG | 0.00746
GACACCTA | -0.0578
GTCTGTTA | 0.0785
AATCTACC | 0.102
GTTCATAA | 0.0365
GCCAGAAA | 0.234
CTGTGGTA | 0.0204
AACCTTAC | 0.192

2 entries from above, as comma-separated lines:
Sequence,PBM E-score
CAACATAC,0.0807
GTTCATAA,0.0365

Later entries.

Sequence | PBM E-score
CGCTGAGA | 0.0336
TGCGTACA | 0.0216
TACAACAA | 0.211
ACTGTCCG | -0.0183
ATATAACA | 0.229
CTATGAAA | 0.124
ATTGATAG | 0.237
ACACTTCT | -0.102
AGGGCGGC | -0.215
CAGCAGTC | -0.0195
CCATATAC | 0.212
GAACCTTC | -0.0985
GAAAGCGC | 0.0496
GTAAAAGA | 0.136
AACCAGTG | -0.166
CGAAGCAG | -0.154
ACAGCTGG | -0.0613
TTCCTCAA | -0.0821
ACCAAAGT | -0.0543
CACTTTAA | 0.227
CGTGTACA | 0.166
CACTGCAG | 0.0818
CCTAGACG | -0.324
CTAATTTA | 0.19
ATGGCGTG | 0.116

Sequence | PBM E-score
ATACCACG | 0.0604
AGATTCGC | -0.0247
CGTCAACG | -0.0805
ACCAGCTC | -0.0393
GATTGTGC | -0.0016
CCTGCCGC | -0.267
TCGGTAAA | 0.0807
TAAGTTAA | 0.139
ACATCGCG | -0.152
GATCGGCC | -0.138
CACTTTTC | 0.149
GTATGCAC | -0.138
ACCTTTTA | -0.0766
CCGCCGCG | -0.00774
ATCCTTTG | 0.107
AAAATCCT | -0.0987
ATGCCCGG | -0.157
CCTGGATA | -0.231
GCAGTGTA | 0.0324
GAGTACTC | 0.163
ACAGGCCG | -0.112
AGGAGCCA | -0.244
AACACTCA | 0.114
TGGTGGAA | -0.0612
AGATACTC | 0.00888

In a second layout: entries from further up.

| Sequence | PBM E-score |
| --- | --- |
| AGGAGCCA | -0.244 |
| AACACTCA | 0.114 |
| TGGTGGAA | -0.0612 |
| AGATACTC | 0.00888 |

Following part:

Sequence | PBM E-score
ACTGACGA | -0.00354
GCTGCCAC | -0.15
AAGGACAT | 0.0177
GAAAAATA | 0.114
AGTCTCCG | -0.00689
AACCACGA | 0.0793
CAGATGCA | -0.216
GAATTGTA | 0.0803
CTTGCAAA | 0.147
AGAAACAA | 0.235
CATAACCC | -0.0918
AGCTGGTG | 0.00702
CATTTAGG | -0.188
ATACAGAA | 0.195
CATGGCGG | -0.249
CCGTGGCG | -0.127
CCTTAAAG | 0.06
CAAGTTCA | -0.00101
GATTATGA | 0.134
CTGCAGAA | 0.2
CCGTTCGA | 0.0189
CGCGGCTC | 0.0963
GCTTCGGA | 0.0206
GTGTTATA | 0.136
CCAAAAAG | 0.0995

Sequence | PBM E-score
AATTTTAC | 0.258
ACCACGGG | -0.184
ACCGGTTA | 0.0946
ACATTAAG | 0.16
CCCGCCGA | -0.172
ATAATCGC | 0.0527
GTTGGGTA | 0.0966
CCCAAGGC | -0.128
GGAGGCTA | -0.259
TATTGACA | 0.0463
CCAGGTCC | -0.307
ACGGATAT | 0.179
TCCTTGAA | -0.0971
AGGGTTCG | -0.0179
GACCAGCA | 0.132
AACACCGT | -0.0219
CTCTCACC | -0.102
CGACATCG | -0.159
GTTATCTA | 0.0492
ACAGCCCT | -0.309
AATTAGCT | -0.0397
GCCCCCCC | -0.41
GATATTCA | 0.0491
CTGCGGAA | -0.0449
AGCGCGAA | 0.146

Sequence | PBM E-score
CACATCCA | 0.071
GCATAGGC | -0.0143
AACATAGC | 0.104
GTCGCGGA | -0.155
CTATAATA | 0.0592
AGGGGTAT | -0.0192
CAAGCATA | 0.0597
GGATGTTA | 0.055
CTTGCAGA | -0.039
CTCGGAAA | 0.0289
ACAACACT | 0.248
CCAAATAC | -0.144
ACGCCGTA | -0.0525
AAGGCTTG | 0.014
CAACGTAC | 0.11
CCCTCTTA | -0.00996
ACGCATGC | 0.00764
CGATAGCG | 0.0721
ACTAAATA | 0.29
CCAGCGGA | -0.264
CACCGGAC | -0.0614
CATCTTCC | 0.107
